For two substances, binding results are on record in article PMC2217592.

Amino acid sequences for entries named in this document (tags omitted). Residues count along the entry.
UniProt Q13488, residues 217-830: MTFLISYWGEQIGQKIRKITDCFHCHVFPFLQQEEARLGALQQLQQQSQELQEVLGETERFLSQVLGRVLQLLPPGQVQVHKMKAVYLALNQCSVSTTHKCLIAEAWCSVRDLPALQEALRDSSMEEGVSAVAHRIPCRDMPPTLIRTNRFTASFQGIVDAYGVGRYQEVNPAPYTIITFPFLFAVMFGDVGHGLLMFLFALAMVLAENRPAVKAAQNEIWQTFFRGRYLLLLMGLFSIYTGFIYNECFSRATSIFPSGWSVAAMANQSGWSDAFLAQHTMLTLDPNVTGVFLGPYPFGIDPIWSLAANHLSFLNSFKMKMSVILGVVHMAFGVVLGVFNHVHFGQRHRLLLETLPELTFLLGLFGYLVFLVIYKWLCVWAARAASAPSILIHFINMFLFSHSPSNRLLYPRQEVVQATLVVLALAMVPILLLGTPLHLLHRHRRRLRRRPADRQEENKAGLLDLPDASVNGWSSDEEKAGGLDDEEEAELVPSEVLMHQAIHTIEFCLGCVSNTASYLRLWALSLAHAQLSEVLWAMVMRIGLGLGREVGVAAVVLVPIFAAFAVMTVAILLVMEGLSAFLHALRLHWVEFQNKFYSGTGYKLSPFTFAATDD
UniProt P01903, residues 26-254: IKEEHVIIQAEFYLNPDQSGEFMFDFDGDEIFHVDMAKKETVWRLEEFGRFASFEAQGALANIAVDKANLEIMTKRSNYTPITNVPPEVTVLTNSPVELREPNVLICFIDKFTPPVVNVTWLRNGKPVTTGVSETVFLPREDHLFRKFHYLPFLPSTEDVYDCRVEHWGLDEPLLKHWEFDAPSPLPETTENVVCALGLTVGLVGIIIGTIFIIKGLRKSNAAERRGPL
UniProt P29350: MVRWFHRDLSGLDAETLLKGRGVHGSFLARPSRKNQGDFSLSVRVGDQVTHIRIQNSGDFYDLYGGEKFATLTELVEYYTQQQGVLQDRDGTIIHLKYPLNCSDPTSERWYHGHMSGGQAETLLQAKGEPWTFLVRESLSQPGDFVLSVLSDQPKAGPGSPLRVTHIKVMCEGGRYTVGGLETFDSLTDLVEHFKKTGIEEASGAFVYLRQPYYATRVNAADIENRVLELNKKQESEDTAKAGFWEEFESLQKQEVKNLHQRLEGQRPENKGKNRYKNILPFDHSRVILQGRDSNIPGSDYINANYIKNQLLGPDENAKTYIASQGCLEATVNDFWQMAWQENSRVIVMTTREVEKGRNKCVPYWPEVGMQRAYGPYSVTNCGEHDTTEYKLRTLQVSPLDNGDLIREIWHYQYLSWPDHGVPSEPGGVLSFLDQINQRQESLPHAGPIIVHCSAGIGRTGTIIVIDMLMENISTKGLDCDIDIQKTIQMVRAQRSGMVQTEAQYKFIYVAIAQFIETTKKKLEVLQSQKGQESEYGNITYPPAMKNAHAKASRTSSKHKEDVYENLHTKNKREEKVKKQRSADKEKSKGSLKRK

No constants are given. Whether binding was seen depends on the method and setting. Binding seen in cells or lysates may run through a third protein. Some results given as binding are weak or reduced against the parent protein; the word gives no strength.

The target in assay [1] is TIRC7 (human (endogenous in PBL)) (UniProt Q13488). Description: co-IP; polyclonal antibody recognizing TIRC7; co-precipitated chain identified by protein sequencing; data not shown.
For assay [2] the target is unchanged. In words: co-IP; lysates of 1 h allo-activated human PBL, immunoprecipitated with anti-TIRC7 mAb (20 µg), protein-A/protein-G Sepharose; immunoblot with anti-HLA-DR mAb (CBL120), anti-TIRC7 or anti-SHP-1.

In the case of “HLA-DR alpha chain (from UniProt P01903 26-254)”, the binding result in assay [1] and in assay [2] was “binds” each time. Turning to “SHP-1 (from UniProt P29350 1-595) (enzyme)”, in assay [2], the binding result is on record as “binds”.
